Literature values in patent US7098232B1, “Treatment and prevention of gastrointestinal disease using antagonists of partial agonists of 5HT1a receptors” (Athpharma Limited, priority 1999, dated 2006).
Some of these results come from one statement about several compounds together.

Test system: patients treated
Details: patients treated for depression; cited from earlier work

Compound | Patients with transient syndrome similar to NUD
CNCCC(Oc1ccc(C(F)(F)F)cc1)c1ccccc1 (centres unmarked) [fluoxetine] | up to 30%
CN[C@H]1CC[C@@H](c2ccc(Cl)c(Cl)c2)c2ccccc21 [sertraline] | up to 30%
